From patent US20210391038A1, “SPECIFICALLY-SHAPED CRYSTAL OF COMPOUND AND METHOD FOR PRODUCING SAME” (TOWA PHARMACEUTICAL CO., LTD., priority 2018, published 2021)

Assay: Filtration time and cake thickness
Settings: trihydrate; for Filtration time Solid-liquid separation: Nutsche, outer diameter 70 mm, reduced pressure; for Filtration time Washing: washing with 20 mL acetone/water (35:65)

SMILES	Filtration time Solid-liquid separation [min]	Cake thickness After compression [mm]	Cake thickness Before compression [mm]	Filtration time Washing [min]
COc1ccc2[n-]c([S@@+]([O-])Cc3ncc(C)c(OC)c3C)nc2c1.COc1ccc2[n-]c([S@@+]([O-])Cc3ncc(C)c(OC)c3C)nc2c1.O.O.O.[Mg+2] [Example 10(1), esomeprazole magnesium trihydrate]	1	10	10	0.2
COc1ccc2[n-]c([S@@+]([O-])Cc3ncc(C)c(OC)c3C)nc2c1.COc1ccc2[n-]c([S@@+]([O-])Cc3ncc(C)c(OC)c3C)nc2c1.O.O.O.[Mg+2] [Example 10(2), esomeprazole magnesium trihydrate]	2	11	20	14
